Laboratory results: PubChem BioAssay AID256 (DTP/NCI, 2004)
The list shows only some results of the screen, not a fair sample: it gathers tests that were run many times, whatever their T/C, doses with no T/C, and many T/C values between a quarter and a half above the control. Further doses and runs are listed elsewhere. T/C gives the treated animals as a percentage of the vehicle group. Some doses have a count of surviving animals in place of a T/C: the source files T/C as zero there, which appears to mark a toxic dose or a test without result, not a measured value. Some doses without a T/C left all or most animals alive at the check, yet need not have been tolerated: survival well below the control is almost never listed, so the zero probably covers shortened survival too. Survivors were counted at the toxicity check, usually on the fifth day, unless a day is given; later deaths do not show. Schedules are NCI's codes, taken here to give the interval after Q, in days (D) or hours (H), and the number of doses after X. Some structures stand for samples that the source files as different forms (salt, stereo form or complex); doses refer to the form tested. Counts like (3×) stand for listed records that agree. Some doses were run more than once; their values stand side by side, smallest first. Where survival is the endpoint, this PubChem deposit counts one and a half times the control or more as active, and values a quarter to a half above the control carry no call in these data; other NCI protocols may use other cut-offs.

System: CD2F1 mice, L1210 leukemia ip, survival T/C
Test: NCI In Vivo Anticancer Drug Screen. Data for tumor model L1210 Leukemia (intraperitoneal) in CD2F1 (CDF1) mice
Conditions: T/C endpoint: mean survival time, higher T/C = longer survival
In short: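 Implant tumor; dose compound or vehicle; measure endpoint in both groups; report treated divided by control.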

Compound: COc1cc(NS(C)(=O)=O)ccc1Nc1c2ccccc2nc2ccccc12
- T/C (dose: 0.25 mg/kg/injection, schedule: Q03HX024 (ip), vehicle: saline): 127 % of control
- T/C (dose: 0.5 mg/kg/injection, schedule: Q03HX016 (ip), vehicle: saline): 136 % of control
- T/C (dose: 0.5 mg/kg/injection, schedule: Q03HX024 (ip), vehicle: saline): 147 % of control
- T/C (dose: 0.9 mg/kg/injection, schedule: Q01DX009 (ip), vehicle: other): 135 (2×) and 141 % of control (2×)
- T/C (dose: 1.0 mg/kg/injection, schedule: Q01DX009 (ip), vehicle: saline, evaluated on day 5): 135 % of control
- T/C (dose: 1.0 mg/kg/injection, schedule: Q01DX009 (ip), vehicle: saline, evaluated on day 60): 127 and 148 % of control
- T/C (dose: 1.0 mg/kg/injection, schedule: Q03HX008 (ip), vehicle: saline): 141 % of control
- T/C (dose: 1.0 mg/kg/injection, schedule: Q03HX024 (ip), vehicle: saline): 130 and 149 % of control
- T/C (dose: 1.8 mg/kg/injection, schedule: Q01DX001 (ip), vehicle: other): 127 (2×) and 131 % of control (2×)
- T/C (dose: 1.8 mg/kg/injection, schedule: Q01DX009 (ip), vehicle: other): 148 % of control (2×)
- T/C (dose: 1.8 mg/kg/injection, schedule: Q04DX003 (ip), vehicle: other): 125 (2×) and 130 % of control (2×)
- T/C (dose: 2.0 mg/kg/injection, schedule: Q01DX009 (ip), vehicle: saline): 149 % of control
- T/C (dose: 2.0 mg/kg/injection, schedule: Q03HX016 (ip), vehicle: saline): 147 % of control
- T/C (dose: 2.0 mg/kg/injection, schedule: Q03HX024 (ip), vehicle: saline): 149 % of control
- T/C (dose: 2.0 mg/kg/injection, schedule: Q04DX003 (ip), vehicle: saline): 129 % of control
- T/C (dose: 3.75 mg/kg/injection, schedule: Q01DX001 (ip), vehicle: other): 125 (2×) and 130 % of control (2×)
- T/C (dose: 3.75 mg/kg/injection, schedule: Q01DX009 (ip), vehicle: Klucel (hydroxypropylcellulose) (HPC)): 141 % of control
- T/C (dose: 3.75 mg/kg/injection, schedule: Q04DX003 (ip), vehicle: other): 147 % of control (2×)
- T/C (dose: 4.0 mg/kg/injection, schedule: Q01DX009 (sc), vehicle: saline): 126 % of control
- T/C (dose: 4.0 mg/kg/injection, schedule: Q04DX003 (ip), vehicle: saline): 135 % of control
- T/C (dose: 4.0 mg/kg/injection, schedule: Q08DX002 (ip), vehicle: saline): 125 % of control
- T/C (dose: 7.5 mg/kg/injection, schedule: Q01DX001 (ip), vehicle: Klucel (hydroxypropylcellulose) (HPC)): 131 % of control
- T/C (dose: 7.5 mg/kg/injection, schedule: Q01DX001 (ip), vehicle: other): 138 (2×) and 142 % of control (2×)
- T/C (dose: 7.5 mg/kg/injection, schedule: Q04DX003 (ip), vehicle: Klucel (hydroxypropylcellulose) (HPC)): 126 % of control
- T/C (dose: 7.5 mg/kg/injection, schedule: Q04DX003 (ip), vehicle: other): 148 % of control (2×)
- T/C (dose: 8.0 mg/kg/injection, schedule: Q01DX001 (ip), vehicle: saline): 133 % of control
- T/C (dose: 8.0 mg/kg/injection, schedule: Q01DX009 (ip), vehicle: saline): 126 and 147 % of control
- T/C (dose: 8.0 mg/kg/injection, schedule: Q01DX009 (sc), vehicle: saline): 132 % of control
- survivor count (dose: 8.0 mg/kg/injection, schedule: Q03HX008 (ip), vehicle: saline): 0 of 10
- survivor count (dose: 8.0 mg/kg/injection, schedule: Q03HX016 (ip), vehicle: saline): 2 of 10
- survivor count (dose: 8.0 mg/kg/injection, schedule: Q03HX024 (ip), vehicle: saline): 8 of 10
- T/C (dose: 8.0 mg/kg/injection, schedule: Q04DX003 (ip), vehicle: saline): 141 and 142 % of control
- T/C (dose: 8.0 mg/kg/injection, schedule: Q08DX002 (ip), vehicle: saline): 139 % of control
- T/C (dose: 12.5 mg/kg/injection, schedule: Q01DX001 (ip), vehicle: Klucel (hydroxypropylcellulose) (HPC)): 129 % of control
- T/C (dose: 15.0 mg/kg/injection, schedule: Q01DX001 (ip), vehicle: other): 147 % of control (2×)
- survivor count (dose: 15.0 mg/kg/injection, schedule: Q01DX009 (ip), vehicle: other): 8 of 10 (2×) and 9 of 10 (2×)
- T/C (dose: 15.0 mg/kg/injection, schedule: Q04DX003 (ip), vehicle: Klucel (hydroxypropylcellulose) (HPC)): 139 % of control
- T/C (dose: 16.0 mg/kg/injection, schedule: Q01DX001 (ip), vehicle: saline): 140 and 145 % of control
- survivor count (dose: 16.0 mg/kg/injection, schedule: Q01DX009 (ip), vehicle: saline): 10 of 10 (2×)
- survivor count (dose: 16.0 mg/kg/injection, schedule: Q03HX008 (ip), vehicle: saline): 0 of 10 and 5 of 10
- survivor count (dose: 16.0 mg/kg/injection, schedule: Q03HX016 (ip), vehicle: saline): 5 of 10
- survivor count (dose: 16.0 mg/kg/injection, schedule: Q03HX024 (ip), vehicle: saline): 5 of 10
- T/C (dose: 16.0 mg/kg/injection, schedule: Q08DX002 (ip), vehicle: saline): 140 % of control
- T/C (dose: 25.0 mg/kg/injection, schedule: Q01DX001 (ip), vehicle: Klucel (hydroxypropylcellulose) (HPC)): 148 % of control
- T/C (dose: 30.0 mg/kg/injection, schedule: Q01DX001 (ip), vehicle: Klucel (hydroxypropylcellulose) (HPC)): 134 % of control
- survivor count (dose: 30.0 mg/kg/injection, schedule: Q01DX001 (ip), vehicle: other): 3 of 10 (2×) and 4 of 10 (2×)
- survivor count (dose: 30.0 mg/kg/injection, schedule: Q01DX009 (ip), vehicle: Klucel (hydroxypropylcellulose) (HPC)): 10 of 10
- T/C (dose: 30.0 mg/kg/injection, schedule: Q04DX003 (ip), vehicle: Klucel (hydroxypropylcellulose) (HPC)): 128 % of control
- survivor count (dose: 30.0 mg/kg/injection, schedule: Q04DX003 (ip), vehicle: other): 4 of 10 (2×) and 6 of 10 (2×)
- T/C (dose: 32.0 mg/kg/injection, schedule: Q01DX001 (ip), vehicle: saline): 148 % of control
- survivor count (dose: 32.0 mg/kg/injection, schedule: Q03HX008 (ip), vehicle: saline): 5 of 10
- survivor count (dose: 32.0 mg/kg/injection, schedule: Q03HX016 (ip), vehicle: saline): 3 of 10
- T/C (dose: 32.0 mg/kg/injection, schedule: Q04DX003 (ip), vehicle: saline): 134 % of control
- T/C (dose: 32.0 mg/kg/injection, schedule: Q08DX002 (ip), vehicle: saline): 143 % of control
- T/C (dose: 50.0 mg/kg/injection, schedule: Q01DX001 (ip), vehicle: Klucel (hydroxypropylcellulose) (HPC)): 132 % of control
- survivor count (dose: 60.0 mg/kg/injection, schedule: Q01DX009 (ip), vehicle: Klucel (hydroxypropylcellulose) (HPC)): 3 of 10
- T/C (dose: 64.0 mg/kg/injection, schedule: Q01DX001 (ip), vehicle: saline): 139 % of control
- survivor count (dose: 64.0 mg/kg/injection, schedule: Q01DX009 (oral), vehicle: saline): 10 of 10 (2×)
- T/C (dose: 64.0 mg/kg/injection, schedule: Q08DX002 (ip), vehicle: saline): 140 % of control
- survivor count (dose: 120.0 mg/kg/injection, schedule: Q04DX003 (ip), vehicle: Klucel (hydroxypropylcellulose) (HPC)): 10 of 10
- survivor count (dose: 128.0 mg/kg/injection, schedule: Q01DX001 (ip), vehicle: saline): 6 of 10
